Data taken from PubChem BioAssay AID623959 (National Center for Advancing Translational Sciences (NCATS), 2012).
Among all 1,400 compounds or so, fewer than 10 were called active. Not shown: some 8% with an inconclusive outcome. Calls come from the whole dose curve; as a rule, active = well fitted curve in the direction sought with a large enough effect; inconclusive = small, poorly fitted or top-dose-only effect, or another doubt; inactive = no such curve, though single readings can be large or run the other way. The list shows a part of the results.

Chains of the proteins cited; added tags and fusions are not shown.
UniProt Q8NER1, whole entry, looked up: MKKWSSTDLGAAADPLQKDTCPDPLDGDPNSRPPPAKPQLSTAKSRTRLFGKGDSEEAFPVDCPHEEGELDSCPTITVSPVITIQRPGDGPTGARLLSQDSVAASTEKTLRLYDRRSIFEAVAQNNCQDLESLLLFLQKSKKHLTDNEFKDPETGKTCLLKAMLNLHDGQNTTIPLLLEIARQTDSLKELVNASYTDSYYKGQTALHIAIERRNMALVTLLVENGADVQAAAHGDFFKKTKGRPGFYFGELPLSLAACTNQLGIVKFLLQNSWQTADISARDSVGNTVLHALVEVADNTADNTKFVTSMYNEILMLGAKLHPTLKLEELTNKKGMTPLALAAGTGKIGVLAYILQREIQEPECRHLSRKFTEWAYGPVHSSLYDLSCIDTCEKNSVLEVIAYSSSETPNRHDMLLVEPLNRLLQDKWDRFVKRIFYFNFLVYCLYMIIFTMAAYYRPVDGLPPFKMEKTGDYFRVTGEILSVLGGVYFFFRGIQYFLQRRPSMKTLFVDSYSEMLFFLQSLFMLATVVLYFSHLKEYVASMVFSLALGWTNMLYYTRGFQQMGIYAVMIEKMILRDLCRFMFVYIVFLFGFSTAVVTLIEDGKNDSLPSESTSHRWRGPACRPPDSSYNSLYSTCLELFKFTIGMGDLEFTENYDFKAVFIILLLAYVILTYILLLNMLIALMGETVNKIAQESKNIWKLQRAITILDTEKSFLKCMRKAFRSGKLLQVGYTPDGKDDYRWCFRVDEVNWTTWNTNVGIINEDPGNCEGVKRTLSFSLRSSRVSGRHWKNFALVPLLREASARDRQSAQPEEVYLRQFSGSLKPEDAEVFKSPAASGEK

Molecular target: Transient receptor potential cation channel subfamily V member 1 (Homo sapiens) (UniProt Q8NER1)
Experiment: qHTS Assay for Compounds that Act as Potentiators of the Vanilloid Receptor 1: Hit Validation; for activity change, positive = potentiation: % of control where 0% means no effect
Conditions: TRPV1-expressing cells, Fluo-8 calcium influx, capsaicin EC20; series mostly up to 42.1 µM; activity change, positive = potentiation: at the top concentration
Method in brief: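 TRPV1 cells (2000/well, overnight 35.5 °C) loaded with Fluo-8 calcium dye 40–90 min at room temperature. FDSS fluorescence (ex 480/em 520 nm) read 3 min after compound, then 2 min after capsaicin at EC20.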
Potency is the fitted concentration of half-maximal effect.

Activity change, positive = potentiation, inactive:
COc1cc2cc(C)c3nnc(SCC(=O)Nc4cc(C)on4)n3c2cc1OC -4.26%, COc1ccc(C2/C=C\CN(C(=O)C3CCCC3)CC(=O)N2Cc2ccc(F)cc2)cc1 (configuration not stated) -4.51%, COc1ccccc1N1CCN(C(=O)Cc2c(C(=O)O)[nH]c3ccc(Cl)cc23)CC1 -5.3%, CSCCCN1CC[C@@H](N2CCN(c3ccccc3F)CC2)[C@H](O)C1 12.5%, Cn1cnnc1SCC(=O)Nc1nc(-c2ccccc2)cs1 -1.61%, CCN1C(=O)[C@@H]2[C@H](C1=O)[C@@H]1C(=O)Nc3ccccc3C(=O)N1[C@@H]2c1ccc(Br)cc1 2.73%, O=C(COC(=O)C1=COCCO1)NC1CCCCC1 -2.77%, COc1ccc(-c2noc(C3CCCN(C(=O)c4ccc(F)cc4)C3)n2)cc1 (configuration not stated) -1.43%, CC(=O)Nc1ccc(/C=C(\C#N)C(N)=O)cc1 -4.7%, Cc1ccc(C(=O)NCCc2ccccc2)cc1 -34.3%, Oc1cccc(/C=N/Nc2cc(N3CCOCC3)nc(N3CCOCC3)n2)c1 -33.3%, CC(C)(C)c1cc(Cl)ccc1OCCn1ccnc1 -37.7%, Cc1ccc(NC(=O)c2ccc3c(c2)OCCO3)cc1C -37.7%, O=c1cc(-c2ccccc2)[nH]c2ccc(F)cc12 -6.02%, COc1cc(C(O)c2nc3ccccc3n2C(C)C)cc(OC)c1OC (configuration not stated) -3.95%, CCCC1(C(=O)OCC)NC(c2ccc(N(C)C)cc2)C2C(=O)N(c3ccc(F)cc3)C(=O)C21 (configuration not stated) 4.32%, Cc1oc(-c2cccs2)nc1CS(=O)CC(=O)NCCc1ccccc1 (configuration not stated) -3.43%, CCOc1ccc(S(=O)(=O)N2CCCCC2)cc1NC(=O)CN1C(=O)NC(C)(c2ccc(C)cc2)C1=O (configuration not stated) -6.38%, O=C(Nc1ccc(N2CCCCCC2)cc1)c1cccc(S(=O)(=O)N2CCOCC2)c1 -37.4%, CC(C)c1ccc(CNNC(=O)c2ccccc2)cc1 -36.7%, Cc1ccc(C2=NS(=O)(=O)N(C)C(C(=O)NCc3cccs3)=C2)cc1 -38.9%, O=C(NNC(=O)c1cccc(O)c1)Nc1ccc([N+](=O)[O-])cc1 3.43%, O=C(Nc1ccc(Cl)cc1)c1csc(-c2ccccc2)n1 -37.6%, Cn1nc(C(C)(C)C)cc1C(=O)NCc1ccc(N2CCCC2=O)cc1 -1.47%, Cc1cccnc1NC(N)=S -7.17%, O=C(CCNS(=O)(=O)c1ccc(Br)s1)NCc1ccccc1Cl -5.73%, O=C(CN1C(=O)C2CCCN2c2ncc(Cl)cc21)NCc1ccc2c(c1)OCO2 (configuration not stated) -22.2%, COc1ccc(NC(=O)c2ccc3ncsc3c2)c2ccccc12 -37.3%, COc1ccccc1NC(=O)CCc1nc(-c2ccccc2F)no1 1.7%, CC(CN1CCCCC1)OC(=O)COc1ccc(Cl)cc1 (configuration not stated) -13.3%, Cc1ccc(CNC(=O)[C@H](C)N2C(=O)N3CCc4c([nH]c5ccccc45)[C@@]3(C)C2=O)cc1 -1.45%, CCn1cc(C2CC(=O)NC2=O)c2ccccc21 (configuration not stated) -23.9%, COc1ccc(NC(=O)c2ccsc2NC(C)=O)cc1 -7.09%, O=C(Nc1ccccc1)c1ccc(NC2CCCCC2)c(S(=O)(=O)N2CCOCC2)c1 -38.1%, CC(C)Nc1nnc(SCC(=O)c2c[nH]c3ccccc23)s1 -5.56%, CCc1ccc(NC(=O)CNCc2ccc(OC)c(OC)c2)cc1 -34.2%, CC(=O)Nc1ccc(N=Cc2c(O)ccc3ccccc23)cc1 -28.1%, Cc1[nH]c2ccccc2c1CCN(Cc1cccnc1)C(=S)Nc1ccc(F)cc1 -6.06%, O=C(Cc1nc2ccccc2[nH]1)c1ccc(Cl)cc1 3.7%, CCOC(=O)c1ccc(NC(=O)Oc2cc(C)c(Cl)cc2C(C)C)cc1 -7.93%, COc1ccc(C(=O)NC(CC(C)C)C(=O)O)cc1OC (configuration not stated) 3.51%, COc1ccc(CNC(=O)COC(=O)c2cc(-c3cccs3)nc3ccccc23)cc1OC -38%, CC(=O)Oc1ccc(NC(=O)CCC2CCCCC2)c(C(=O)O)c1 6.93%, Cc1ccc(NC(=O)N2CCCN(Cc3ccc(F)cc3)C2)cc1C -6.13%, COC(=O)c1ccc(-n2c(C)nc(=O)c(-c3ccccc3)c2C)cc1 8.04%, Cc1ccc(OCCCCn2ccnc2C)c(C)c1 -3.51%, CCN1C(=O)[C@@H]2[C@@H](c3ccc(-c4ccc(F)cc4)cc3)N3CCCC[C@@]3(C(=O)OC)[C@@H]2C1=O -8.18%, COc1ccc(Nc2ncnc3c2oc2ccccc23)cc1 -38.6%, O=C(CCc1ccccc1)N1CCCC(Nc2ccc(F)cc2)C1 (configuration not stated) -39.1%, O=C(CSc1nnc(CNc2ccc(Cl)cc2)o1)Nc1nc2c(s1)CCCC2 4.39%, Cc1ccc(C)c(OCC(=O)Nc2ccc(N3CCOCC3)cc2)c1 9.59%, COc1ccc(NC(=O)c2ccc3c(c2)N(C)CCS3)cc1 -37.9%, O=C(CSc1ccc(-c2ccccn2)nn1)NCc1ccccc1 -0.0558%, CSCCNC(=O)c1ccc2nc(C3CCCCC3)oc2c1 -38.4%, COc1ccc(NC2c3ccccc3C(=O)N2Cc2ccc3c(c2)OCO3)cc1 (configuration not stated) -38.7%, COC(=O)c1[nH]c2ccc(C)cc2c1NC(=O)CN1CCCC(C)(C)C1 -38.2%, O=C(Nc1cccnc1)c1ccc(N2CCCC2)c([N+](=O)[O-])c1 -38.2%, Cn1c(=O)c2c(nc3sccn32)n(C)c1=O 2.52%, COC(=O)[C@@H]1C[C@@]2(O)[C@@H](O)[C@@H](O)[C@@H](O)C[C@H]2N1Cc1ccc(Cl)cc1 -4.11%, Cc1nc2c(-c3ccccc3)c(C)[nH]n2c(=O)c1Cl -11.9%, CC(C)c1ccc(NC2CCCN(C(=O)c3ccco3)C2)cc1 (configuration not stated) -14.5% [at 41.5 µM], CCOC(=O)[C@H]1[C@H]2COc3ccc(Cl)cc3[C@@H]2N2C(=O)c3ccc(C)cc3NC(=O)[C@@]12C -38.4%, C=CCN1c2ccccc2[C@]23C[C@@H](C(=O)OC)N(C(=O)c4ccc(Br)cc4)C2=NC(C(=O)OC)=C(C(=O)OC)[C@H]13 -30.9%, CC(NC(=O)c1ccc(N(C)C)cc1)C(c1cccs1)N1CCN(C)CC1 (configuration not stated) 7.98%, Cc1oc(C(C)(C)C)cc1C(=O)N1CCCC1C(=O)O (configuration not stated) -8.94%, CC(C)(C)c1cc(C(=O)Nc2ccc(F)cc2)n(Cc2ccc(F)cc2)n1 -38.1%, CC(=O)CC[C@@H](C)O[C@@H]1OC(C)[C@H](O)CC1O (some centres not stated) -23.1%, CCOC(=O)C1CCN(C(=O)c2ccc(S(=O)(=O)Nc3ccccc3Cl)cc2)CC1 -5.16%, Cc1ccc(C(=O)NCC(=O)OCCOc2cccc(Cl)c2)cc1 -5.01%, Cc1ccc2nc(-c3ccccn3)cc(C(=O)Nc3ccc4c(c3)OCO4)c2c1 -39.2%, O=C(CN1CCN(S(=O)(=O)c2cccc(Br)c2)CC1)NCCc1cccs1 3.99%, COC(=O)CCCC1=CC2=C(c3ccccc3)C(=O)C(C)(OC(=O)C3CCCC3)C(=O)C2=CN1Cc1ccc(OC)cc1 (configuration not stated) -4.83%, COc1ccc2c(c1)c1nc3ccccc3nc1n2CC(=O)OC(C)C -4.2%, Fc1ccccc1CNC(=S)NCc1ccc(Cl)cc1 -38.9%, O=c1ccn(Cc2ccccc2)c2ccccc12 -1.76%, N#Cc1ccc(/C=C\c2nccc3c2[nH]c2ccccc23)cc1 -38.4%, COc1ccc(C(=O)Nc2ccc(C3=NNC(=O)CC3C)cc2NC(=O)c2ccc(OC)cc2)cc1 (configuration not stated) -38.6%, Fc1ccccc1-c1n[nH]c(=S)n1/N=C/c1c[nH]c2ccccc12 -7.77%, CC(C)(C)C(=O)NNC(=O)c1ccc(Oc2cc(Cl)cc(Cl)c2)o1 0.968%, COc1ccc(C)cc1N(CC(=O)NCCSCc1cccc(Cl)c1)S(C)(=O)=O 4.99%, Cc1ccnc(NS(=O)(=O)c2ccc(NC(=O)CCOc3ccccc3)cc2)n1 -5.91%, Cc1cn(C(=O)C(C)N2C(=O)c3ccccc3C2=O)c(C)n1 (configuration not stated) -6.99%, CCN1/C(=C/C(=O)c2ccco2)Sc2ccccc21 -0.0633%, Cc1ccc(NC(=O)c2cc(S(=O)(=O)N3CCOCC3)ccc2F)c(C)c1 -31.2%, Cc1nc2ccccc2c(=O)n1CCc1ccccc1 -32%, CCC(=O)N(CCc1ccccc1)Cc1cc2cccc(C)c2[nH]c1=O -38.2%, CC(=O)c1cc(-c2ccc(F)cc2)n(CCC(=O)Nc2cccnc2)c1C -38.3%, C/C=C\C(=O)Nc1cccc(C2=NOC3(C2)C[C@@H](C(N)=O)N(C(=O)CCCCC)C3)c1 (some centres not stated) -11.3%, O=C1c2cccnc2C(Nc2ccccc2Br)N1Cc1ccco1 (configuration not stated) -5.99%, CCOc1ccccc1NC(=O)c1ccc2[nH]c(C)c(C)c2c1 -4.97%, COc1cccc(CCNC(=O)CCc2nnc(-c3cc(C)oc3C)o2)c1 -1.14%, CC(C)(C)OC(=O)NCCCC[C@H](NC(=O)c1nc[nH]c1C(=O)NCc1ccc(CNC(=O)OC(C)(C)C)cc1)C(=O)OC(C)(C)C 0.195%, CC1CCN(C(=O)c2cc(-c3ccc4c(c3)OCO4)on2)CC1 -36.7%, CCOC(=O)[C@H]1[C@H]2COc3ccc(OC)cc3[C@@H]2N2C(=O)c3ccccc3NC(=O)[C@@]12C -38.2%, Cc1cc(/C=N\O)c(C)n1-c1ccncc1 -6.74%, O=C(O)CC1S/C(=N/N=C/c2ccc(-c3ccc(Cl)c([N+](=O)[O-])c3)o2)NC1=O (configuration not stated) 3.41%, CCOc1c(Nc2ccc(C(C)C)cc2)c(=O)c1=O -36.4%, O=C(Nc1ccccc1Cl)c1ccn[nH]1 3.29%, COc1ccc(C(=O)Nc2ccc(C3(C#N)CCCC3)cc2)cc1 14.5%, O=C(O)CC1Sc2nc3ccccc3n2C1=O (configuration not stated) -14.8%, NC(=O)c1nn(-c2ccccc2)nc1N -2.78%, Cc1cc2c(NC(=O)Nc3ccccc3)cccc2nn1 -36.4%, COc1ccc(Nc2nc(C)nc3c2oc2ccccc23)cc1 -37.7%, CCNc1nc(CC)nc2c1oc1ccccc12 -36.6%, COc1cc(CN2CCN(CCCc3ccccc3)C(CCO)C2)cc(OC)c1O (configuration not stated) 35.9%, O=C(Nc1ccc(F)cc1)c1cc2ccccc2o1 -32.5%

Potency, active:
CCOC(=O)C(C(=O)OCC)c1cc(Br)c2noc3c2c1C(=O)c1ccccc1-3 3.6 µM
